Assay results as given in PMC4442108 (Molecules, 2015).
HELM strings list residues between dots; [ac] is acetyl, [am] amide, other brackets name non-standard units.

Test: peptide made by a vendor
Details: whole synthesis

## PEPTIDE1{G.G.G.Y.S.K.A.Q.K.A.Q.A.K.Q.A.K.Q.A.Q.K.A.Q.K.A.Q.A.K.Q.A.K.Q.A.Q.K.A.Q.K.A.Q.A.K.Q.A.K.Q}$$$$V2.0
  purity (crude or final not stated): ~80%
